Survivor count and T/C data for 23 molecules are collected here from PubChem BioAssay AID192 (DTP/NCI, 2004).

The assay concerns BDF1 mice, B16 melanoma ip, median survival T/C. Description: NCI In Vivo Anticancer Drug Screen. Data for tumor model B16 Melanoma (intraperitoneal) in B6D2F1 (BDF1) mice. Particulars: T/C endpoint: median survival time, higher T/C = longer survival. In short, it runs like this: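 Transplantable tumor model; survival or tumor size measured; reported as T/C, treated over vehicle control.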

Setting [1] is: dose: 100.0 mg/kg/injection, schedule: Q01DX009 (ip), vehicle: Klucel (hydroxypropylcellulose) (HPC).
Setting [2] is: dose: 200.0 mg/kg/injection, schedule: Q01DX009 (ip), vehicle: Klucel (hydroxypropylcellulose) (HPC).
Where [3] appears, read: dose: 50.0 mg/kg/injection, schedule: Q01DX009 (ip), vehicle: saline with Tween-80.
Setting [4] is: dose: 100.0 mg/kg/injection, schedule: Q01DX009 (ip), vehicle: saline with Tween-80.
Where [5] appears, read: dose: 200.0 mg/kg/injection, schedule: Q01DX009 (ip), vehicle: saline with Tween-80.
Where [6] appears, read: dose: 400.0 mg/kg/injection, schedule: Q01DX009 (ip), vehicle: Klucel (hydroxypropylcellulose) (HPC).
The mark [7] stands for this setting: dose: 25.0 mg/kg/injection, schedule: Q01DX009 (ip), vehicle: saline.
Setting [8] is: dose: 50.0 mg/kg/injection, schedule: Q01DX009 (ip), vehicle: saline.
Where [9] appears, read: dose: 50.0 mg/kg/injection, schedule: Q01DX009 (ip), vehicle: Klucel (hydroxypropylcellulose) (HPC).

The structures appear in SMILES notation. The list does not hold the whole screen: it gathers tests that were run many times, whatever their T/C, doses with no T/C, and many T/C values between a quarter and a half above the control. Further doses and runs are listed elsewhere. T/C: endpoint of the treated group in % of that of the vehicle group. Some entries give survivors of the animals treated and no T/C: the source holds a T/C of zero for them, seemingly a mark for toxic or unscored doses. Some survivor counts are full or nearly so, which does not show that the dose was tolerated: the source hardly ever lists a survival T/C far under the control, and the zero likely stands for such cases as well. Survivors were counted at the toxicity check, usually on the fifth day, unless a day is given; later deaths do not show. Schedule codes are those of the source, read here as Q, the interval in days (D) or hours (H), X, the number of doses. Additions like (4×) count equal records among those shown. Some doses were run more than once; the values are given in rising order. For survival time, this PubChem deposit counts one and a half times the control or more as active, and values a quarter to a half above the control carry no call in these data; other NCI protocols may use other cut-offs. Some T/C values are followed by the survivors on the day toxicity was checked, most often the fifth; where none is given, no animal had died by that day.

Take `COc1cccc2c1C(=O)c1c(O)c3c(c(O)c1C2=O)C[C@@](O)(C(=O)COC(=O)c1cccnc1)C[C@@H]3OC1CC(N)C(O)C(C)O1` (some centres not stated): the survivor count (dose: 24.0 mg/kg/injection, schedule: Q01DX001 (ip), vehicle: water) was 10 of 10.

Consider `O=[N+]([O-])c1cc([N+](=O)[O-])c(Br)cc1Cl`, for which the survivor count (dose: 10.0 mg/kg/injection, schedule: Q01DX009 (ip), vehicle: Klucel (hydroxypropylcellulose) (HPC)) is on record as 10 of 10; the survivor count (dose: 20.0 mg/kg/injection, schedule: Q01DX009 (ip), vehicle: saline with Tween-80) is listed as 9 of 10; the survivor count (dose: 40.0 mg/kg/injection, schedule: Q01DX009 (ip), vehicle: Klucel (hydroxypropylcellulose) (HPC)) was 10 of 10.

As to `O=C(OCCOCCOCCOC(=O)c1ccccc1)c1ccccc1`, the T/C reads like this: under setting [1], 126 % of control [9 of 10 alive]; under setting [2], 126 % of control.

Take `COc1cc(O)c2c(c1)C(=O)c1cc3c(c(O)c1C2=O)C(OC1OC(C)C(O)C(O)C1OC)C(OC)C(C)(O)C3=O` (configuration not stated): the survivor count under setting [2] was 7 of 10.

Regarding `CCCCC(=O)OCC1OC(n2cnc3c(=S)nc[nH]c32)C(OC(=O)CCCC)C1OC(=O)CCCC` (configuration not stated), the survivor count was 10 of 10 under setting [3], 9 of 10 under setting [4] and 10 of 10 under setting [5].

As for `COc1ccccc1NC(=O)Nc1ccccc1Cl`, the survivor count under setting [4] was 10 of 10; the survivor count under setting [5] was 10 of 10; the survivor count (dose: 400.0 mg/kg/injection, schedule: Q01DX009 (ip), vehicle: saline with Tween-80) is recorded as 10 of 10.

In the case of `COc1cc2c[n+](C)c3c4cc5c(cc4ccc3c2cc1OC)OCO5`, the T/C was 131 % of control (dose: 6.25 mg/kg/injection, schedule: Q01DX009 (ip), vehicle: saline with Tween-80); 136 % of control (dose: 10.0 mg/kg/injection, schedule: Q01DX009 (ip), vehicle: water); 132 % of control (dose: 12.5 mg/kg/injection, schedule: Q01DX009 (ip), vehicle: saline with Tween-80); 141 % of control (dose: 20.0 mg/kg/injection, schedule: Q01DX009 (ip), vehicle: water); 141 % of control (dose: 25.0 mg/kg/injection, schedule: Q01DX009 (ip), vehicle: saline with Tween-80). Moreover, the survivor count is, setting by setting: under setting [3], 10 of 10; (dose: 80.0 mg/kg/injection, schedule: Q01DX009 (ip), vehicle: water) 10 of 10; under setting [4], 10 of 10 (2×).

For the molecule `Cc1ccc(CNc2ccc(Br)cc2)cc1`, the survivor count under setting [6] was 10 of 10.

As to `O=C1N[C@@H]2C(=C[C@H](O)[C@@H](O)[C@H]2O)c2cc3c(c(O)c21)OCO3`, the survivor count (dose: 5.0 mg/kg/injection, schedule: Q01DX009 (ip), vehicle: saline with Tween-80) is 10 of 10 and the survivor count (dose: 10.0 mg/kg/injection, schedule: Q01DX009 (ip), vehicle: saline with Tween-80) is reported as 9 of 10.

In the case of `CCOC(=O)N1CCN(CCCCCOc2ccccc2C2CCCCC2)CC1`, the survivor count was 10 of 10 under setting [4] and 10 of 10 under setting [5].

With `N#CC(=C1C=CC(=NO)C=C1)c1ccc(Cl)cc1`, the survivor count runs as follows: under setting [4], 10 of 10; under setting [5], 10 of 10.

Regarding `COC1CC(CC2CCC(C)C(C(C)C(=O)O)O2)OC2(OC(C)(C3CCC(C)(C4OC(C5OC(O)(CO)C(C)CC5C)CC4C)O3)CC2C)C1C` (configuration not stated), the survivor count (dose: 5.0 mg/kg/injection, schedule: Q01DX009 (ip), vehicle: Klucel (hydroxypropylcellulose) (HPC)) is recorded as 9 of 10.

With `ClCCCN1CCCCC1CCl` (configuration not stated), the T/C is, setting by setting: (dose: 5.56 mg/kg/injection, schedule: Q01DX009 (ip), vehicle: water) 129 and 146 % of control; (dose: 6.25 mg/kg/injection, schedule: Q01DX009 (ip), vehicle: saline) 132 % of control; (dose: 12.5 mg/kg/injection, schedule: Q04DX003 (ip), vehicle: saline) 140 % of control. Moreover, the survivor count by setting is: (dose: 18.8 mg/kg/injection, schedule: Q01DX009 (ip), vehicle: water) 10 of 10; under setting [7], 10 of 10; (dose: 25.0 mg/kg/injection, schedule: Q04DX003 (ip), vehicle: saline) 10 of 10; under setting [8], 0 of 10; (dose: 50.0 mg/kg/injection, schedule: Q04DX003 (ip), vehicle: saline) 7 of 10.

For `Cc1ccc(S(=O)(=O)NC(=O)C2C(=O)CC3(CCCCC3)CC2=O)cc1`, the survivor count was 3 of 10 under setting [2]; 0 of 10 and 8 of 10 under setting [6].

As to `COc1cc2c(cc1OC)C13CCN4CC5=CCOC6CC(=O)N2C1C6C5CC43` (configuration not stated) (tested in a mixture with another compound), under setting [1], the survivor count was 5 of 10.

Take `CN(C)CCCN1c2ccccc2Sc2c(Cl)cc(Cl)cc21`: the survivor count under setting [8] was 6 of 10.

In the case of `CCCCCCCCCCCCCOC(=O)CC(C(=O)OCCCCCCCCCCCCC)S(=O)(=O)O` (configuration not stated), the T/C is, setting by setting: under setting [9], 145 % of control; under setting [1], 135 % of control.

As to `O=S(O)OS(=O)O`, the survivor count (dose: 400.0 mg/kg/injection, schedule: Q04DX003 (ip), vehicle: saline) is 7 of 10.

On to `CC(=O)OCc1c(O)c2c(c(O)c1COC(C)=O)C(=O)C=CC2=O`, for which the survivor count under setting [9] is on record as 10 of 10.

In the case of `C/C=C(\C)c1cc(=O)c2c(C)cc3c(c2o1)C(=O)c1c(O)c(C2CC(C)(N(C)C)C(O)C(C)O2)cc(C2CC(N(C)C)C(O)C(C)O2)c1C3=O` (configuration not stated), the survivor count is 10 of 10 (dose: 0.62 mg/kg/injection, schedule: Q01DX009 (ip), vehicle: saline); 10 of 10 (dose: 1.25 mg/kg/injection, schedule: Q01DX009 (ip), vehicle: saline); 10 of 10 (dose: 2.5 mg/kg/injection, schedule: Q01DX009 (ip), vehicle: saline); 10 of 10 (dose: 4.0 mg/kg/injection, schedule: Q01DX009 (ip), vehicle: Klucel (hydroxypropylcellulose) (HPC)); 5 of 10 (dose: 5.0 mg/kg/injection, schedule: Q01DX009 (ip), vehicle: saline); 10 of 10 (dose: 500.0 micrograms/kg/injection, schedule: Q01DX009 (ip), vehicle: saline). Further, the survivor count was 10 of 10 (dose: 1000.0 micrograms/kg/injection, schedule: Q01DX009 (ip), vehicle: saline) and 10 of 10 (dose: 1250.0 micrograms/kg/injection, schedule: Q01DX009 (ip), vehicle: saline). The T/C is, setting by setting: (dose: 1.0 mg/kg/injection, schedule: Q01DX009 (ip), vehicle: Klucel (hydroxypropylcellulose) (HPC)) 130 % of control; (dose: 2.0 mg/kg/injection, schedule: Q01DX009 (ip), vehicle: Klucel (hydroxypropylcellulose) (HPC)) 131 % of control; (dose: 78.0 micrograms/kg/injection, schedule: Q01DX009 (ip), vehicle: saline) 138 % of control; (dose: 78.12 micrograms/kg/injection, schedule: Q01DX009 (ip), vehicle: saline) 125 % of control [9 of 10 alive]; (dose: 125.0 micrograms/kg/injection, schedule: Q01DX009 (ip), vehicle: saline) 131 % of control; (dose: 156.25 micrograms/kg/injection, schedule: Q01DX009 (ip), vehicle: saline) 132 % of control. The T/C (dose: 312.0 micrograms/kg/injection, schedule: Q01DX009 (ip), vehicle: saline) was 137 % of control.

As for `COc1cc(N(CCCl)CCCl)ccc1NC(=O)c1ccccc1`, the T/C is 142 % of control (dose: 12.5 mg/kg/injection, schedule: Q01DX009 (ip), vehicle: saline) and 130 % of control under setting [7]. Besides, the survivor count runs as follows: under setting [8], 8 of 8; (dose: 100.0 mg/kg/injection, schedule: Q01DX009 (ip), vehicle: saline) 0 of 8.

Take `COc1cc(/C=N/NC(=O)N/N=C/c2cc(OC)c(OC)c(OC)c2)cc(OC)c1OC`: under setting [6], the survivor count is listed as 5 of 10.

With `CCc1ccc(C2=C(O)C(=O)C(c3ccc(CC)cc3)=C(O)C2=O)cc1`, the survivor count by setting is: under setting [3], 8 of 10 and 9 of 10; under setting [4], 0 of 10 and 5 of 10.
